These results are taken from PubChem BioAssay AID1487 (National Center for Advancing Translational Sciences (NCATS), 2009).

The other results are listed elsewhere or left out. These are further read-outs of the screen, such as a control signal, another cell line or another target. No call is given for them. Compounds called inactive in the main read-out are mostly missing here. The note in brackets gives the kind of curve behind each potency; many fits are weak.

The nature of this experiment: qHTS Assay for Modulators of Lamin A Splicing. Conditions: HeLa LMNA splicing GFP/RFP minigene ratio, 48 h. The method in brief:
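S3 HeLa cells stably expressing lamin A-EGFP splicing minigene plus DsRed2, 600 cells/well, 48 h compound exposure at 37C. Laser-scanning cytometry; analysed as GFP (500-530 nm)/RFP (575-640 nm) total intensity ratio; 0.5% DMSO vehicle.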
(Quantitative high-throughput screening tests each substance at several concentrations.)

Setting [1] is: measured here: RFP viability control channel.
The mark [2] stands for this setting: measured here: GFP splicing reporter channel.

Broadly, the AC50 is the midpoint of the concentration-response curve, whichever way the signal moves. For `O=C(CCl)Nc1ccc(N2CCCCCC2)cc1`, under setting [1], the AC50 is 17.8 µM [falling, partial curve].
With `COc1ccc(CNC(=O)c2ccc(CN3C(=O)C(C)=C(c4ccc(C)cc4)S3(=O)=O)cc2)cc1`, the AC50 by setting is: under setting [2], 0.631 µM [falling, partial curve]; under setting [1], 0.631 µM [falling, full curve].
Regarding `CCN(CC)S(=O)(=O)c1ccc(C(=O)NCc2nnc(SCC(=O)OC)n2C)cc1`, the AC50 was 3.16 µM [rising, partial curve] under setting [2] and 2.82 µM [rising, partial curve, poor fit] under setting [1].
On to `Cc1c(Cl)cccc1NC(=S)NCc1ccc2c(c1)OCO2`, for which, under setting [2], the AC50 is 0.00891 µM [rising, full curve, poor fit].
`Cc1ccc(C)c(NC(=O)c2ccccc2NS(=O)(=O)c2cc([N+](=O)[O-])ccc2C)c1`: under setting [1], the AC50 was 2.82 µM [rising, partial curve].
Regarding `CCN(C(=O)COC(=O)c1ccc(Br)o1)C1CCCCC1`, the AC50 under setting [1] was 0.0447 µM [rising, full curve, poor fit].
Same read-out and setting: to `c1ccc(CC2CCN(C3=Nc4cccc5cccc3c45)CC2)cc1` belongs 5.62 µM [rising, partial curve].
On to `Nc1c(C(=O)N/N=C/c2cccnc2)cnn1-c1ccccc1`, for which the half-maximal activity concentration (AC50) under setting [2] was 3.98 µM [rising, single point].
Consider `O=C(Nc1nc(-c2ccc(F)cc2)cs1)C1CCCO1` (configuration not stated), for which the AC50 reads like this: under setting [2], 14.1 µM [rising, single point]; under setting [1], 31.6 µM [rising, single point].
For `COc1ccc(C(=O)Nc2nc(C)c3cc4c(cc3n2)OCO4)cc1`, the AC50 under setting [1] is 14.1 µM [rising, single point].
For the molecule `COc1cccc(-c2nc(NCc3ccccc3)c3ccccc3n2)c1`, the AC50 reads like this: under setting [2], 20 µM [falling, single point]; under setting [1], 12.6 µM [falling, partial curve].
As to `Cc1cccc(C(=O)N/N=C/c2ccc(OC3CSC3)cc2)c1`, the AC50 is, setting by setting: under setting [2], 3.98 µM [falling, full curve, poor fit]; under setting [1], 5.62 µM [falling, full curve].
As for `COc1cc(/C=N/n2cnn(Cc3ccccc3Cl)c2=S)cc(OC)c1OC`, the AC50 under setting [2] is 35.5 µM [falling, single point].
Consider `Oc1ccc(N2CCN(C(=S)NCCc3ccccc3)CC2)cc1`, for which the AC50 under setting [2] is 1.58 µM [falling, full curve, poor fit].
With `Cc1ccc(CNC(=O)c2cn(C3CCCCC3)c(=O)c3c2c2ccccc2n3C)o1`, the AC50 under setting [2] was 28.2 µM [rising, single point].
Regarding `Cc1cccc(S(=O)(=O)Nc2cccc3c2C(=O)c2ccccc2-3)c1`, under setting [1], the AC50 was 35.5 µM [rising, single point].
With `COc1cccc(NC(=O)Nc2ccc(Cc3ccncc3)cc2)c1`, under setting [1], the AC50 is 35.5 µM [rising, single point].
Take `CCSc1nc(=S)n(Cc2ccccc2)c(C)c1C(C)=O`: the AC50 was 14.1 µM [rising, single point] under setting [2] and 15.8 µM [rising, single point] under setting [1].
Consider `O=C(CNC1CCCCCC1)Nc1ccccc1N1CCOCC1`, for which the AC50 under setting [2] is 3.55 µM [rising, single point].
As for `C/C(=N\NC(=O)CCCNc1ccc(C)cc1)c1ccccn1`, the AC50 under setting [2] is 11.2 µM [rising, partial curve, poor fit] and the AC50 under setting [1] is 14.1 µM [rising, partial curve].
Turning to `Cc1cc(C)nc(NN=C(c2ccccc2)c2ccccc2)n1`, the AC50 runs as follows: under setting [2], 14.1 µM [rising, single point]; under setting [1], 25.1 µM [rising, single point].
With `O=c1c(O)c(-c2ccccc2)oc2ccccc12`, the AC50 by setting is: under setting [2], 12.6 µM [falling, partial curve]; under setting [1], 25.1 µM [falling, single point].
Regarding `CC(=O)NCCNC(=O)c1ccc(-n2c(C)ccc2C)cc1`, under setting [2], the AC50 was 35.5 µM [rising, single point].
As for `CC(C)N=c1scc(-c2cccs2)n1/N=C/c1ccc(O)c(O)c1O`, the AC50 was 20 µM [falling, single point] under setting [2] and 28.2 µM [falling, single point] under setting [1].
Regarding `c1ccc(C(c2ccccc2)N2CCN(c3nc4ccccc4n4cnnc34)CC2)cc1`, the AC50 under setting [2] is 8.91 µM [rising, partial curve] and the AC50 under setting [1] is 8.91 µM [rising, partial curve].
With `CCC(=O)Nc1cccc(NC(=S)NC(=O)c2ccc(Cl)cc2Cl)c1`, under setting [1], the AC50 is 35.5 µM [rising, single point].
For the molecule `COc1ccc(CCNc2ncnc3c2c(-c2ccccc2)cn3-c2ccc(Cl)cc2)cc1OC`, under setting [2], the half-maximal activity concentration (AC50) is 14.1 µM [falling, single point].
For `CS(=O)(=O)N(CC(=O)NCc1ccco1)c1cccc([N+](=O)[O-])c1`, under setting [1], the AC50 is 0.2 µM [falling, full curve, poor fit].
In the case of `CCOc1ccc(OCc2ccc(C(=O)N(CC)CC)cc2)cc1`, under setting [1], the half-maximal activity concentration (AC50) was 2.24 µM [rising, partial curve].
Consider `COC(=O)c1ccc(NC(=O)C2CCN(c3ncnc4c3nc3n4CCCCC3)CC2)cc1`, for which the concentration at half-maximal activity (AC50) under setting [2] was 28.2 µM [falling, partial curve].
In the case of `O=C1C2C3C=CC(c4ccccc4)(C2C(=O)N1c1cccc(Cl)c1)C1C(=O)N(c2cccc(Cl)c2)C(=O)C31` (configuration not stated), the AC50 under setting [1] was 0.0501 µM [rising, full curve, poor fit].
The same measure, in the same setting: as for `COc1ccc(O)c(C(=O)c2cnc3nc4ccccc4n3c2)c1`, the figure is 4.47 µM [rising, partial curve, poor fit]; as for `CCOC(=O)CSc1nc2ccc(NC(=O)c3ccc(Cl)cc3)cc2s1`, 0.00316 µM [falling, full curve, poor fit].
In the case of `CC(=O)c1cccc(NC(=O)[C@@H](NC(N)=O)C(C)C)c1`, the AC50 under setting [2] is 1.58 µM [falling, partial curve, poor fit].
As to `NS(=O)(=O)c1ccc(CNC(=O)Cc2ccccc2F)cc1`, the half-maximal activity concentration (AC50) under setting [1] is 22.4 µM [falling, single point].
Consider `N#CC1=C2SC=C(c3ccc(Br)cc3)N2CCCC1=O`, for which, under setting [1], the AC50 was 6.31 µM [falling, single point].
Take `Cc1cc(C)cc(NC(=O)CSc2c(C(C)C)cnc3c2c(=O)n(C)c(=O)n3C)c1`: the AC50 under setting [2] was 0.631 µM [rising, full curve, poor fit].
`Cc1cc(Nc2nc3ccccc3c3nnc(C)n23)ccc1Br`: the AC50 under setting [1] is 17.8 µM [rising, single point].
In the case of `O=C(NCc1cccnc1)Nc1cccc(F)c1`, the concentration at half-maximal activity (AC50) runs as follows: under setting [2], 0.141 µM [rising, partial curve]; under setting [1], 6.31 µM [rising, single point].
Turning to `O=C(O)CNC(=O)c1ccccc1`, the AC50 under setting [2] was 0.0562 µM [falling, full curve, poor fit] and the AC50 under setting [1] is 0.316 µM [falling, partial curve, poor fit].
With `Cc1cccc(OCCC(=O)Nc2ccc(C)c(S(=O)(=O)N3CCCCC3)c2)c1`, under setting [1], the AC50 was 12.6 µM [rising, partial curve].
`C=CCn1c(Cc2cccs2)nnc1SC/C=C/c1ccccc1`: the AC50 under setting [1] was 20 µM [rising, single point].
`COc1ccccc1N1CCN(CCCCCCOc2ccc(F)cc2)CC1`: the AC50 by setting is: under setting [2], 17.8 µM [rising, single point]; under setting [1], 35.5 µM [rising, single point].
Turning to `NS(=O)(=O)c1cccnc1Nc1cccc(C(F)(F)F)c1`, under setting [1], the AC50 was 7.94 µM [rising, partial curve, poor fit].
As to `O=C1CC[C@@H](C(=O)O)N1`, the AC50 is, setting by setting: under setting [2], 0.00355 µM [falling, full curve, poor fit]; under setting [1], 0.00562 µM [falling, full curve, poor fit].
On to `Cc1cccc(NC(=O)CCCSc2nc3ccccc3[nH]2)c1`, for which the AC50 under setting [1] is 12.6 µM [rising, single point].
Regarding `CC(Sc1nc2cc(Cl)ccc2s1)C(=O)Nc1cccc(S(=O)(=O)N2CCOCC2)c1` (configuration not stated), under setting [2], the concentration at half-maximal activity (AC50) is 20 µM [rising, single point].
In the case of `COc1ccc(C2c3c(ncn(Cc4ccco4)c3=N)Oc3ccc4ccccc4c32)cc1` (configuration not stated), the AC50 under setting [1] was 35.5 µM [rising, single point].
With `CC(C)C(=O)NCCc1nc2ccccc2n1CCc1ccccc1`, the half-maximal activity concentration (AC50) under setting [2] is 25.1 µM [falling, partial curve, poor fit].
Turning to `CCOC(=O)c1noc2ncn(CC(=O)Nc3ccc(F)cc3Cl)c(=O)c12`, under setting [2], the AC50 is 1 µM [falling, full curve, poor fit].
For `Cc1cccc(OCCn2cc(/C=N/NC(=O)c3ccncc3)c3ccccc32)c1`, the AC50 is 22.4 µM [rising, single point] under setting [2] and 31.6 µM [rising, single point] under setting [1].
On to `CCN(CC)S(=O)(=O)c1cccc(C(=O)c2c(C)cc3ccccn23)c1`, for which the AC50 reads like this: under setting [2], 5.62 µM [rising, full curve, poor fit]; under setting [1], 11.2 µM [rising, partial curve].
For `Cc1oc(-c2cccc(Cl)c2)nc1CSc1nc2c(c(=O)[nH]1)CCC2`, the AC50 is, setting by setting: under setting [2], 0.0251 µM [falling, full curve, poor fit]; under setting [1], 0.0251 µM [falling, full curve].
Take `CCn1ncc(Br)c1C(=O)Nc1cc(C)cc(C)c1`: the AC50 under setting [2] was 8.91 µM [rising, single point].
As to `O=C(c1cccc(COCC(F)(F)C(F)F)c1)N1CCN(c2ccccc2)CC1`, the AC50 was 11.2 µM [rising, partial curve, poor fit] under setting [2] and 22.4 µM [rising, single point] under setting [1].
Turning to `CCOC(=O)c1cnc(SCC(=O)Nc2ccc3c(c2)OCCO3)nc1N`, under setting [1], the AC50 was 35.5 µM [rising, single point].
As to `COc1ccc(Nc2ncnc3c2cnn3Cc2ccccc2)cc1`, the AC50 under setting [1] was 31.6 µM [rising, single point].
As to `CCOC(=O)Cc1csc(NS(=O)(=O)c2ccc3c4c(cccc24)C(=O)N3CC)n1`, the AC50 under setting [1] is 11.2 µM [rising, partial curve].
